# Reference: paper PMC9905075
# The chains behind the UniProt entries cited, without tags or fusion partners.
# UniProt P31939: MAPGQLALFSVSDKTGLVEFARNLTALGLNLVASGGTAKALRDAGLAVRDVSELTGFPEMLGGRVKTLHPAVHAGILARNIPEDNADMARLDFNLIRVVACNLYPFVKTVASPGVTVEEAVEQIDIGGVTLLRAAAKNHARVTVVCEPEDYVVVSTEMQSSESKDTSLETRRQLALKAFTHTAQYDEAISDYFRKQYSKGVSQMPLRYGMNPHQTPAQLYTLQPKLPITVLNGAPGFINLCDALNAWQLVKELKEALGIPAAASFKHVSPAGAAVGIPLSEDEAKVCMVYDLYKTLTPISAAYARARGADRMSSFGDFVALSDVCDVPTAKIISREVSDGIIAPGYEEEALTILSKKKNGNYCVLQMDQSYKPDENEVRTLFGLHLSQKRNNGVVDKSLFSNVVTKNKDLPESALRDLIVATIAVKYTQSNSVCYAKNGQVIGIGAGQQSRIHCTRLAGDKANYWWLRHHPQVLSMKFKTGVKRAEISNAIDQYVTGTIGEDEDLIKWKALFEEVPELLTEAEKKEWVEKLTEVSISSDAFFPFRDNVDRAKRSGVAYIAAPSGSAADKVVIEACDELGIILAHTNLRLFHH
# UniProt Q92831: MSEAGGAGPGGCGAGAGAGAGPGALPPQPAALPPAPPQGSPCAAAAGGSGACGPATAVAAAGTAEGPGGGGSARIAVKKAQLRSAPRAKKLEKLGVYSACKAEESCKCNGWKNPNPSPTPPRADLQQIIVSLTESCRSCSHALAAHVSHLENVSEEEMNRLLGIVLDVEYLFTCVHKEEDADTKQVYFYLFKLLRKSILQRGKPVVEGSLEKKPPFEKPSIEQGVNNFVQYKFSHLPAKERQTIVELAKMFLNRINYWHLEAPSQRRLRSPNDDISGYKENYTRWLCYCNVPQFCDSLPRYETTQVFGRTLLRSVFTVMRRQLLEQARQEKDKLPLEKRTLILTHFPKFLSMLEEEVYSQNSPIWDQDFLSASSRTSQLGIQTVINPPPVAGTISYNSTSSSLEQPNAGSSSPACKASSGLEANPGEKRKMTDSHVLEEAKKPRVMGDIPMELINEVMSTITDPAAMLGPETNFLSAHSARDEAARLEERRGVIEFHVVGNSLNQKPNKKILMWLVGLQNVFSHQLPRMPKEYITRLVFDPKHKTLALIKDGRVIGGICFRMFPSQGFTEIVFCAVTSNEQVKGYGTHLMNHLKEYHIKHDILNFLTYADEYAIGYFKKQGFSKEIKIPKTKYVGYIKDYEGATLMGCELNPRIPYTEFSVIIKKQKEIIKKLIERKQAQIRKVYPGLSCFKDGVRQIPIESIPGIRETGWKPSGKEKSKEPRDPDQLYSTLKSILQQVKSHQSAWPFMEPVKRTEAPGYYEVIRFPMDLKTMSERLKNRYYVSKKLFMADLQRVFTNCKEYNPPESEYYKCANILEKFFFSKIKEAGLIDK
# No constants are given. Whether binding was seen depends on the method and setting. Binding seen in cells or lysates may run through a third protein. Some entries that bind do so weakly or less than the wild type.
# Tests used:
# [1] = target: T1, Vitamin D receptor (human) (UniProt P11473); assay: co-IP; cells lysed in RIPA buffer with PMSF; co-IP and immunoblot; cells, bait and tags not told in the text (Fig. S2f-h)
# T1 sequence: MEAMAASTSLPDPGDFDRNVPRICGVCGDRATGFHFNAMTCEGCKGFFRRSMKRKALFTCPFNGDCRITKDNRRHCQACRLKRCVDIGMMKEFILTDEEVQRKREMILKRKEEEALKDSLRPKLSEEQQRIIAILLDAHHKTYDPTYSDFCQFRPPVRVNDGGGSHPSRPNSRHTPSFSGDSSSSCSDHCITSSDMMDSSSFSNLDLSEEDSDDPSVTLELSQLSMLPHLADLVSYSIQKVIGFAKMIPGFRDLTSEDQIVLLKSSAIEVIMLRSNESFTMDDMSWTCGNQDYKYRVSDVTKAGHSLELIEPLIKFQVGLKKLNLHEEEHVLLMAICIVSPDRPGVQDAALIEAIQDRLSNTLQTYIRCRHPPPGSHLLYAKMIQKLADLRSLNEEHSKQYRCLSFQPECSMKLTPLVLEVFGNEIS
# [2] = target: 5-Aminoimidazole-4-Carboxamide Ribonucleotide Formyltransferase/IMP Cyclohydrolase (human (endogenous in CRC cells)) (UniProt P31939); assay: co-IP; endogenous proteins in CRC cells; cells lysed in RIPA buffer with PMSF; co-IP and immunoblot
binding [1],binding [2],Substance
binds,,p53 (wild type) (from UniProt P04637 1-393)
,binds,lysine acetyltransferase 2B (from UniProt Q92831 1-832) (enzyme)
